Reference: paper doi:10.1101/2023.02.09.527816

Molecular target: SlAN2 (tomato (Solanum lycopersicum))
Assay: two-hybrid

B1: SlHY5 (protein, UniProt Q9SM50 1-158)
chain: MQEQATSSIAASSLPSSSERSSSSALHHELKEGMESDDEIRRVPEMGGEATGTTSASGRDGVSAAGQAQPSAGTQRKRGRSPADKENKRLKRLLRNRVSAQQARERKKAYLIDLEARVKELETKNAELEERLSTLQNENQMLRHILKNTTAGAQEGRK
For B1, which binding is on record?
The binding was “binds”.

Results are given in words; binding and its absence hold for the method and conditions named. A result given as binding can be weak or reduced; the word gives no strength.
